Reference: PubChem BioAssay AID652272 (Drosophila RNAi Screening Center, 2013)
Aim: 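Finding fly genes that regulate Hedgehog signal transduction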 (primary screen). Cells: Drosophila clone 8 (Cl8) cells. Reagents: long dsRNA against Drosophila genes. Read-out: 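Plate reader light from a firefly reporter under a ptc promoter fragment that responds to Hedgehog, with Renilla light as transfection reference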. Direction: firefly Hh reporter signal: higher = more ptc reporter light; Renilla reference signal: higher = more Renilla control light. Call rule: 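Hit when the z-score averaged over two replicates is under -2 or over +3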. Calls: active = hit: reporter lowered or raised; inactive = not a hit.
In all, the deposit lists about 21,000 reagents; this is a random part of those with a known target gene and a result. Of all reagents, 503 (2.4%) are marked active. 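Raw plate light values, not normalised; calls rest on replicate z-scores that were not deposited; hits include reporter decreases as well as increases.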 Not given: the amount of reagent, the time to read-out.

{"gene knocked down": "betaNACtes3", "firefly Hh reporter signal, replicate 1": 80626, "firefly Hh reporter signal, replicate 2": 1.86e5, "Renilla reference signal, replicate 1": 2225, "Renilla reference signal, replicate 2": 8264, "call": "inactive"}
{"gene knocked down": "CG13157", "firefly Hh reporter signal, replicate 1": 84759, "firefly Hh reporter signal, replicate 2": 49191, "Renilla reference signal, replicate 1": 1914, "Renilla reference signal, replicate 2": 3801, "call": "inactive"}
{"gene knocked down": "Sec61alpha", "firefly Hh reporter signal, replicate 1": 89128, "firefly Hh reporter signal, replicate 2": 92512, "Renilla reference signal, replicate 1": 4032, "Renilla reference signal, replicate 2": 3307, "call": "inactive"}
{"gene knocked down": "Polr1B", "firefly Hh reporter signal, replicate 1": 61428, "firefly Hh reporter signal, replicate 2": 43469, "Renilla reference signal, replicate 1": 3362, "Renilla reference signal, replicate 2": 2733, "call": "inactive"}
{"gene knocked down": "Gr47a", "firefly Hh reporter signal, replicate 1": 70835, "firefly Hh reporter signal, replicate 2": 48747, "Renilla reference signal, replicate 1": 1584, "Renilla reference signal, replicate 2": 3984, "call": "inactive"}
{"gene knocked down": "Tsp33B", "firefly Hh reporter signal, replicate 1": 1.02e5, "firefly Hh reporter signal, replicate 2": 56604, "Renilla reference signal, replicate 1": 2631, "Renilla reference signal, replicate 2": 4050, "call": "inactive"}

Not a retest: 2 of the entries above.
{"gene knocked down": "betaNACtes3", "firefly Hh reporter signal, replicate 1": 80626, "firefly Hh reporter signal, replicate 2": 1.86e5, "Renilla reference signal, replicate 1": 2225, "Renilla reference signal, replicate 2": 8264, "call": "inactive"}
{"gene knocked down": "CG13157", "firefly Hh reporter signal, replicate 1": 84759, "firefly Hh reporter signal, replicate 2": 49191, "Renilla reference signal, replicate 1": 1914, "Renilla reference signal, replicate 2": 3801, "call": "inactive"}

The list goes on:
{"gene knocked down": "CG6066", "firefly Hh reporter signal, replicate 1": 1.57e5, "firefly Hh reporter signal, replicate 2": 1.57e5, "Renilla reference signal, replicate 1": 5137, "Renilla reference signal, replicate 2": 4512, "call": "inactive"}
{"gene knocked down": "Aptx", "firefly Hh reporter signal, replicate 1": 6.17e5, "firefly Hh reporter signal, replicate 2": 1.17e5, "Renilla reference signal, replicate 1": 30656, "Renilla reference signal, replicate 2": 2873, "call": "inactive"}
{"gene knocked down": "ng2", "firefly Hh reporter signal, replicate 1": 84100, "firefly Hh reporter signal, replicate 2": 2.65e5, "Renilla reference signal, replicate 1": 3219, "Renilla reference signal, replicate 2": 8333, "call": "inactive"}
{"gene knocked down": "mnd", "firefly Hh reporter signal, replicate 1": 97459, "Renilla reference signal, replicate 1": 993, "Renilla reference signal, replicate 2": 2234, "call": "inactive"}
{"gene knocked down": "CG4594", "firefly Hh reporter signal, replicate 1": 80555, "firefly Hh reporter signal, replicate 2": 47021, "Renilla reference signal, replicate 1": 2756, "Renilla reference signal, replicate 2": 2301, "call": "inactive"}
{"gene knocked down": "Send2", "firefly Hh reporter signal, replicate 1": 1.32e5, "firefly Hh reporter signal, replicate 2": 50566, "Renilla reference signal, replicate 1": 3350, "Renilla reference signal, replicate 2": 4370, "call": "inactive"}
